# Laboratory results taken from the supplement of paper PMC8728848.
# The other results are listed elsewhere or left out.
# B1: PX9916F-bfa-443-24-443 (Bacteroides fragilis) (protein)
# chain: DIRPVGSVIPQTAEEYRALLARAYLNVPNDRGLACLRSDEMLVNDNEYDRNSYGDIERWNDVSPFPGTSQFTWSNFYNVLFIANQVIESQKEITEGTPEVVNQLVGEAHLLRAYLHFVLVNLHGQPYTKSGALNSKSIPLKLDTDLEKTLGRNTVEEVYTSILSDIEHARELINKEKWETVFSYRFNVLSVDALQSRVSLYMGAWPKCLESAEAVLAKKSVLVDMNETPLALPNHFESVESITALEQVMGSSVNNAVWVPATFLALYQEGDKRLAAYFAAPDENGNRKSSKGGKREFSCTFRVGELYLNAAEAAANMDKLPHARMRLLELMRKRYTPEAYDKKENAVNVMDKNALISEILNERARELAFEGHRWFDLRRTTRPRMVKVLQGKTYILEQDDPRYTIPIPRDAIAANPGLAN
# Assays:
# Test in all cases: glycan array binding signal (z-score within array); higher = stronger binding
# Settings in all cases: glycan notation: IUPAC condensed, linker removed
# [1] = biological target: Neu5Ac(a2-6)Gal(b1-4)GlcNAc(b1-2)Man(a1-3)[Neu5Ac(a2-3)Gal(b1-4)GlcNAc(b1-2)Man(a1-6)]Man(b1-4)GlcNAc(b1-4)GlcNAc
# Outline: (§1)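 Arrays were curated from the Consortium for Functional Glycomics database, 3228 in total, and kept only where the protein sequence was available. Binding is expressed as a within-array Z-score. This score was averaged across arrays of the same protein sequence at different concentrations or buffers and across linkers, and negative values can be read as non-binding.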
# [2] = biological target: Neu5Ac(a2-6)Gal(b1-4)GlcNAc(b1-2)Man(a1-3)[Neu5Ac(a2-6)Gal(b1-4)GlcNAc(b1-2)Man(a1-6)]Man(b1-4)GlcNAc(b1-4)GlcNAc
# Outline: as §1
# [3] = biological target: Neu5Ac(a2-6)Gal(b1-4)GlcNAc(b1-2)Man(a1-3)[Neu5Ac(a2-6)Gal(b1-4)GlcNAc(b1-2)Man(a1-6)]Man(b1-4)GlcNAc(b1-4)[Fuc(a1-6)]GlcNAc
# Outline: as §1
# [4] = biological target: Neu5Ac(a2-6)Gal(b1-4)GlcNAc(b1-2)Man(a1-6)Man(b1-4)GlcNAc(b1-4)GlcNAc
# Outline: as §1
# [5] = biological target: Neu5Ac(a2-6)Gal(b1-4)GlcNAc(b1-2)Man(a1-6)[Gal(b1-4)GlcNAc(b1-2)Man(a1-3)]Man(b1-4)GlcNAc(b1-4)GlcNAc
# Outline: as §1
# [6] = biological target: Neu5Ac(a2-6)Gal(b1-4)GlcNAc(b1-2)Man(a1-6)[GlcNAc(b1-2)Man(a1-3)]Man(b1-4)GlcNAc(b1-4)GlcNAc
# Outline: as §1
# [7] = biological target: Neu5Ac(a2-6)Gal(b1-4)GlcNAc(b1-2)Man(a1-6)[Man(a1-3)]Man(b1-4)GlcNAc(b1-4)GlcNAc
# Outline: as §1
# [8] = biological target: Neu5Ac(a2-6)Gal(b1-4)GlcNAc(b1-2)[Neu5Ac(a2-6)Gal(b1-4)GlcNAc(b1-4)]Man(a1-3)[GlcNAc(b1-4)][Neu5Ac(a2-6)Gal(b1-4)GlcNAc(b1-2)[Neu5Ac(a2-6)Gal(b1-4)GlcNAc(b1-6)]Man(a1-6)]Man(b1-4)GlcNAc(b1-4)GlcNAc
# Outline: as §1
# [9] = biological target: Neu5Ac(a2-6)Gal(b1-4)GlcNAc(b1-2)[Neu5Ac(a2-6)Gal(b1-4)GlcNAc(b1-4)]Man(a1-3)[GlcNAc(b1-4)][Neu5Ac(a2-6)Gal(b1-4)GlcNAc(b1-4)Man(a1-6)]Man(b1-4)GlcNAc(b1-4)GlcNAc
# Outline: as §1
# [10] = biological target: Neu5Ac(a2-6)Gal(b1-4)GlcNAc(b1-2)[Neu5Ac(a2-6)Gal(b1-4)GlcNAc(b1-6)]Man(a1-6)[Neu5Ac(a2-6)Gal(b1-4)GlcNAc(b1-2)Man(a1-3)][GlcNAc(b1-4)]Man(b1-4)GlcNAc(b1-4)GlcNAc
# Outline: as §1
# [11] = biological target: Neu5Ac(a2-6)Gal(b1-4)GlcNAc(b1-3)Gal(b1-3)GlcNAc
# Outline: as §1
# [12] = biological target: Neu5Ac(a2-6)Gal(b1-4)GlcNAc(b1-3)Gal(b1-4)GlcNAc
# Outline: as §1
# [13] = biological target: Neu5Ac(a2-6)Gal(b1-4)GlcNAc(b1-3)Gal(b1-4)GlcNAc(b1-2)Man(a1-3)[Neu5Ac(a2-6)Gal(b1-4)GlcNAc(b1-3)Gal(b1-4)GlcNAc(b1-2)Man(a1-6)]GalNAc
# Outline: as §1
# [14] = biological target: Neu5Ac(a2-6)Gal(b1-4)GlcNAc(b1-3)Gal(b1-4)GlcNAc(b1-3)Gal(b1-4)GlcNAc
# Outline: as §1
# [15] = biological target: Neu5Ac(a2-6)Gal(b1-4)GlcNAc(b1-3)Gal(b1-4)GlcNAc(b1-3)Gal(b1-4)GlcNAc(b1-2)Man(a1-3)[Neu5Ac(a2-6)Gal(b1-4)GlcNAc(b1-3)Gal(b1-4)GlcNAc(b1-3)Gal(b1-4)GlcNAc(b1-2)Man(a1-6)]GalNAc
# Outline: as §1
# [16] = biological target: Neu5Ac(a2-6)Gal(b1-4)GlcNAc(b1-3)Gal(b1-4)GlcNAc(b1-3)GalNAc
# Outline: as §1
# [17] = biological target: Neu5Ac(a2-6)Gal(b1-4)GlcNAc(b1-3)Gal(b1-4)GlcNAc(b1-3)[Neu5Ac(a2-6)Gal(b1-4)GlcNAc(b1-3)Gal(b1-4)GlcNAc(b1-6)]GalNAc
# Outline: as §1
# [18] = biological target: Neu5Ac(a2-6)Gal(b1-4)GlcNAc(b1-3)Gal(b1-4)GlcNAc(b1-6)[Gal(b1-3)]GalNAc
# Outline: as §1
# [19] = biological target: Neu5Ac(a2-6)Gal(b1-4)GlcNAc(b1-3)Gal(b1-4)[Fuc(a1-3)]GlcNAc(b1-3)Gal(b1-4)[Fuc(a1-3)]GlcNAc
# Outline: as §1
# [20] = biological target: Neu5Ac(a2-6)Gal(b1-4)GlcNAc(b1-3)GalNAc
# Outline: as §1
# [21] = biological target: Neu5Ac(a2-6)Gal(b1-4)GlcNAc(b1-3)[Neu5Ac(a2-6)Gal(b1-4)GlcNAc(b1-6)]GalNAc
# Outline: as §1
# [22] = biological target: Neu5Ac(a2-6)Gal(b1-4)GlcNAc(b1-6)GalNAc
# Outline: as §1
# [23] = biological target: Neu5Ac(a2-6)Gal(b1-4)GlcNAc(b1-6)[Gal(b1-3)GlcNAc(b1-3)]Gal(b1-4)Glc
# Outline: as §1
# [24] = biological target: Neu5Ac(a2-6)Gal(b1-4)GlcNAc(b1-6)[Gal(b1-3)]GalNAc
# Outline: as §1
# [25] = biological target: Neu5Ac(a2-6)Gal(b1-4)GlcNAc6S
# Outline: as §1
# [26] = biological target: Neu5Ac(a2-6)GalNAc
# Outline: as §1
# [27] = biological target: Neu5Ac(a2-6)GalNAc(b1-4)GlcNAc
# Outline: as §1
# [28] = biological target: Neu5Ac(a2-6)GalNAc(b1-4)GlcNAc6S
# Outline: as §1
# [29] = biological target: Neu5Ac(a2-6)GlcNAc(b1-4)GlcNAc
# Outline: as §1
# [30] = biological target: Neu5Ac(a2-6)GlcNAc(b1-4)GlcNAc(b1-4)GlcNAc
# Outline: as §1
binder,measurement,setting,value
B1,glycan array binding signal (z-score),[1],0.925
same,glycan array binding signal (z-score),[2],-0.058
same,glycan array binding signal (z-score),[3],-0.455
same,glycan array binding signal (z-score),[4],0.038
same,glycan array binding signal (z-score),[5],0.4
same,glycan array binding signal (z-score),[6],0.435
same,glycan array binding signal (z-score),[7],-0.804
same,glycan array binding signal (z-score),[8],-0.139
same,glycan array binding signal (z-score),[9],0.41
same,glycan array binding signal (z-score),[10],-0.631
same,glycan array binding signal (z-score),[11],-0.915
same,glycan array binding signal (z-score),[12],-0.736
same,glycan array binding signal (z-score),[13],-0.427
same,glycan array binding signal (z-score),[14],-0.806
same,glycan array binding signal (z-score),[15],1.35
same,glycan array binding signal (z-score),[16],1.49
same,glycan array binding signal (z-score),[17],-0.63
same,glycan array binding signal (z-score),[18],-0.155
same,glycan array binding signal (z-score),[19],0.558
same,glycan array binding signal (z-score),[20],-0.607
same,glycan array binding signal (z-score),[21],-0.857
same,glycan array binding signal (z-score),[22],0.34
same,glycan array binding signal (z-score),[23],0.117
same,glycan array binding signal (z-score),[24],-0.419
same,glycan array binding signal (z-score),[25],-0.518
same,glycan array binding signal (z-score),[26],-1.11
same,glycan array binding signal (z-score),[27],0.071
same,glycan array binding signal (z-score),[28],0.29
same,glycan array binding signal (z-score),[29],-0.997
same,glycan array binding signal (z-score),[30],-0.341

# Pulled one by one from the list above, two records:
binder,measurement,setting,value
B1,glycan array binding signal (z-score),[22],0.34
same,glycan array binding signal (z-score),[30],-0.341
